Consider one substance from article PMC10537513.

Protein sequences, listed by entry. Tags and fused reporters are not part of them.
UniProt Q61937: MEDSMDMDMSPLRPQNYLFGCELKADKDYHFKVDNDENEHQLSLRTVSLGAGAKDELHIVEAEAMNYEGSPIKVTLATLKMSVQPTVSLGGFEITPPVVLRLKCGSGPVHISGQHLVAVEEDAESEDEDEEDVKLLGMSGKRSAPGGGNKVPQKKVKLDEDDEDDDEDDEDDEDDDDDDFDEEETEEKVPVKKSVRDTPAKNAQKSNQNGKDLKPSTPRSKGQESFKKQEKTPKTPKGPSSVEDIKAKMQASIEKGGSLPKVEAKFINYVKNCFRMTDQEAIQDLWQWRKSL
UniProt Q6XZL8: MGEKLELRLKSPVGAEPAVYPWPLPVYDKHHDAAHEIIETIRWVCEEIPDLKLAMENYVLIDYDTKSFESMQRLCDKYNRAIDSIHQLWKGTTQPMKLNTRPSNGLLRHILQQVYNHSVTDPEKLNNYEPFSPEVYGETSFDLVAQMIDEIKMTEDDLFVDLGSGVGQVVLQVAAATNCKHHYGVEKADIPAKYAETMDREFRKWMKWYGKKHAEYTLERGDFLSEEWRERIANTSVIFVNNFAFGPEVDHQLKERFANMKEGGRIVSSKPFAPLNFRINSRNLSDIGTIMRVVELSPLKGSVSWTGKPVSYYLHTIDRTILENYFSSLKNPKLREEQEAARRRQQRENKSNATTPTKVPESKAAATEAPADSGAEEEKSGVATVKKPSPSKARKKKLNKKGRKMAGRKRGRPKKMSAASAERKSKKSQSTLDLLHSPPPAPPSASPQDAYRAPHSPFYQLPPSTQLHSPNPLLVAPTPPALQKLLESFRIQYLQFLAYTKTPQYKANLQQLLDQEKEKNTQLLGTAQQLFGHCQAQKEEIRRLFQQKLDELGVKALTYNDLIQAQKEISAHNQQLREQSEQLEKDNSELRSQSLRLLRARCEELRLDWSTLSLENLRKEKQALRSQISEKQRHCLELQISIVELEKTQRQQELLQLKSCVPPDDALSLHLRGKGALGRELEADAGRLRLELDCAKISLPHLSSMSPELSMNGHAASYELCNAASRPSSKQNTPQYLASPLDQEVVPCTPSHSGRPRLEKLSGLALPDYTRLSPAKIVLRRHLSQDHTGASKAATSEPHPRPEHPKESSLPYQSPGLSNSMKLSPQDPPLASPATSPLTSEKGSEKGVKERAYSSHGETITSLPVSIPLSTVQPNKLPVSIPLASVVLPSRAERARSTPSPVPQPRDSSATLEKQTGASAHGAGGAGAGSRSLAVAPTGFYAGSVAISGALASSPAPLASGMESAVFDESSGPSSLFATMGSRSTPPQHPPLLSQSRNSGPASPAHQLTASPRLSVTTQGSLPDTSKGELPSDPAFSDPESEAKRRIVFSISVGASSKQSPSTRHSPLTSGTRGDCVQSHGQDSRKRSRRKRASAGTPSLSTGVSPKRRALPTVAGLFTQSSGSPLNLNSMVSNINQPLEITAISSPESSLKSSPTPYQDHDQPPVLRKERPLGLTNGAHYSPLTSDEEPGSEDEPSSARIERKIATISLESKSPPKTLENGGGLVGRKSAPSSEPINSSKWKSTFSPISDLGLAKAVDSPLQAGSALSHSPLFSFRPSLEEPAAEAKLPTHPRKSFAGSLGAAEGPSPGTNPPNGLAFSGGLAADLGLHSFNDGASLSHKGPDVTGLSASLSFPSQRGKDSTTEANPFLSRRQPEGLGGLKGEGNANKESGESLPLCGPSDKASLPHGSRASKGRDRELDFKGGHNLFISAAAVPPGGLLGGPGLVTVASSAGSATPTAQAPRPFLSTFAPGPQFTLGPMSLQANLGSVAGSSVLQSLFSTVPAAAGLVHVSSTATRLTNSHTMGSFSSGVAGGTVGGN

For assay [1], the target named is Nucleophosmin 1 (NPM1), endogenous in N2a cells (mouse (endogenous in N2a)) (UniProt Q61937). The assay is described as follows: cross-linking; N2a lysate in co-IP Buffer 1 with 0.5 mM EGS for 30 min at 25 °C; input probed with NPM1 antibody: monomeric and oligomeric NPM1 bands.
Assay [2] concerns the target DOT1L-HA-FLAG overexpressed in N2a cells (mouse) (UniProt Q6XZL8). The assay is described as follows: co-IP; nucleoplasm fraction of N2a cells overexpressing DOT1L-FLAG-HA, adjusted with co-IP Buffer (20 mM Tris pH 7.5, 1 mM EDTA, 100 mM NaCl, 0.5% NP40); co-IP as for total lysate.
The target is the same in assay [3]. Nature of the assay: proximity ligation; in situ PLA (Duolink) in N2a cells overexpressing DOT1L-FLAG-HA, antibodies against FLAG and NPM1; signal inside the nucleus (LMNB1), outside the nucleolus (FBL).
Assay [4] has the same target. The assay is described as follows: co-IP; chromatin fraction of N2a cells overexpressing DOT1L-FLAG-HA, resuspended in co-IP Buffer (20 mM Tris pH 7.5, 1 mM EDTA, 100 mM NaCl, 0.5% NP40) and sonicated; co-IP as for total lysate.
The target in assay [5] is DOT1L, endogenous in N2a cells (mouse (endogenous in N2a)) (UniProt Q6XZL8). The assay is described as follows: co-IP; endogenous proteins, N2a cell lysate (4*10^7 cells) in co-IP Buffer 2 (20 mM Hepes pH8, 300 mM NaCl, 0.5% NP40, 10% glycerol, 1 mM EDTA) equilibrated to 150 mM NaCl; DOT1L antibody or NPM1 antibody on protein G dynabeads overnight; immunoblot.
Assay [6] has as its target DOT1L-HA-FLAG overexpressed in N2a cells (mouse) (UniProt Q6XZL8). The assay is described as follows: co-IP + cross-linking; N2a cells expressing DOT1L-HA-FLAG for 72 h, lysed in co-IP Buffer 1, incubated with DMSO or 0.5 mM EGS for 30 min at 25 °C, quenched with Tris-HCl pH 7.5; DOT1L immunoprecipitated with HA antibody, immunoblot with NPM1 antibody.
Assay [7] shares this target. Nature of the assay: co-IP; DOT1L-FLAG-HA overexpressed in N2a cells; lysate in co-IP Buffer 1 (20 mM Tris pH 7.5, 1 mM EDTA, 100 mM NaCl, 0.5% NP40); IP with HA antibody (or NPM1 antibody) on protein G dynabeads overnight, IgG control; DOT1L detected with FLAG antibody; also with lysate treated with 20 ug RNase (much stronger interaction) or 5U DNase (binding not affected) for 30 min before the co-IP.

These are yes or no findings as the source states them, for the method shown. In cells and extracts the contact can be indirect. Some results given as binding are weak or reduced against the parent protein; the word gives no strength.

In the case of “Nucleophosmin 1 (NPM1), endogenous in N2a cells (from UniProt Q61937 1-292)”, the binding result in assay [1] was “binds”; in assay [2] it was “no binding (condition: in the nucleoplasm fraction)”; in assay [3], “binds”; in assay [4] it was “binds”; in assay [5], “binds”; in assay [6], “binds”. Moreover, the binding entry in assay [7] is listed as “binds”.
